Results are given in words; binding and its absence hold for the method and conditions named. For some of these results: Binding seen in cells or lysates may run through a third protein. Some results given as binding are weak or reduced against the parent protein; the word gives no strength.
Experiments:
[1] = biological target: T1, Carnitine palmitoyltransferase 1A (CPT1A) (human (endogenous in LX2)) (UniProt P50416); experiment: co-IP; endogenous proteins in LX2 cell lysate; antibody to the target protein, Protein A/G beads, SDS-PAGE and Western blot; cells treated with DATs (10 µM, 24 h), with CPT1A siRNA or negative control siRNA
T1 sequence: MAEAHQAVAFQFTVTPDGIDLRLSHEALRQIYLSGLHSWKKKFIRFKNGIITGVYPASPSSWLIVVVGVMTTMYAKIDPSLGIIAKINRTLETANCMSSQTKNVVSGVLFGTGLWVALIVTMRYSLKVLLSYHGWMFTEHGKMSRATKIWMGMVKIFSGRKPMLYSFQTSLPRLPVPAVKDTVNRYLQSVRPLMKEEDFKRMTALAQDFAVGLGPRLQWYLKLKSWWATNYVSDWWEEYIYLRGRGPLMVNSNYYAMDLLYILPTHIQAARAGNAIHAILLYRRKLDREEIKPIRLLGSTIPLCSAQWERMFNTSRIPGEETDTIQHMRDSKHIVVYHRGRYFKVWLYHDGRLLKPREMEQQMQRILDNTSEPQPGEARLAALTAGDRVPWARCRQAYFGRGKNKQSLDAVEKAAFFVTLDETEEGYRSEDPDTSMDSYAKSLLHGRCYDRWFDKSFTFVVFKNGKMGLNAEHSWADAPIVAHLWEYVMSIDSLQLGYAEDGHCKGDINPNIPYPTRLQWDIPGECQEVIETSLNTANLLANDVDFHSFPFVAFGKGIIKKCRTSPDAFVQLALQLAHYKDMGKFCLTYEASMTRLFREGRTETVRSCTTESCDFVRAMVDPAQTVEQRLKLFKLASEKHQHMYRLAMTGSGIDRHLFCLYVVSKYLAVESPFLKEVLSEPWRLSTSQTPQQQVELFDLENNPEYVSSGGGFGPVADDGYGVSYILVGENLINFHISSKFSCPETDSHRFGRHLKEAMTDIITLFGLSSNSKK

Chains of the proteins cited; added tags and fusions are not shown.
UniProt Q9NP72: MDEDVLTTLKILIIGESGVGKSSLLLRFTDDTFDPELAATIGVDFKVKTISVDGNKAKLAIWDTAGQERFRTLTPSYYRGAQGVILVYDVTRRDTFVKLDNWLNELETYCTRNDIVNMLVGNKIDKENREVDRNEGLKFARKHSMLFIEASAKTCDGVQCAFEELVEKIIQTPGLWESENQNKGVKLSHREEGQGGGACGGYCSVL

[2] = biological target: Dihydrolipoamide Acetyltransferase (DLAT) (human (endogenous in LX2)) (UniProt P10515); experiment: native gel or EMSA; nondenaturing gel electrophoresis and immunoblot of DLAT oligomers in LX2 lysate; cells treated with DATs (0–10 µM, 24 h), also Elesclomol-Cu, TTM, GSH, DEM, rapamycin, CQ, 3-MA or siRNAs
[3] = biological target: T2, dihydrolipoamide dehydrogenase (DLD) (human (endogenous in LX2)), P09622; experiment: immunoblotting of oligomerized protein; immunoblot of oligomerized DLD in LX2 lysate; cells treated with DATs (10 µM, 24 h), with or without transfection of FLAG-tagged DLD-320R; settings: remark: other sources report otherwise
T2 chain: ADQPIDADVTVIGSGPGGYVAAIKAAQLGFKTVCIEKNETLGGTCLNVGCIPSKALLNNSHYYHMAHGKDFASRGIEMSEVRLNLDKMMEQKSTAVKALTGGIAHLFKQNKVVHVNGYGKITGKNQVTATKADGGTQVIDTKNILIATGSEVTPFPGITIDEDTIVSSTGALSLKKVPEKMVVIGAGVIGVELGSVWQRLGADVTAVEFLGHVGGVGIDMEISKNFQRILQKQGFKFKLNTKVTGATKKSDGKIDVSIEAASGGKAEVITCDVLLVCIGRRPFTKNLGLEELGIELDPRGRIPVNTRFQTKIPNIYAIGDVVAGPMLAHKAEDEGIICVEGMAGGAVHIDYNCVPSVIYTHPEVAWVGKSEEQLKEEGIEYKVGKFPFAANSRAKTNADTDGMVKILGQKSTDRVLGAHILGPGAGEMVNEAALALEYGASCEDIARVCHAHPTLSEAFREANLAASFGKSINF

[4] = biological target: DLAT (mouse liver) (mouse (endogenous in liver tissue)) (UniProt Q8BMF4); experiment: immunoblotting of oligomerized protein; immunoblot of oligomerized DLAT in liver tissue of CCl4/BDL mouse fibrosis models (Vehicle, RAB18-KD, DATs) and in primary mouse HSCs

“Ras‐related protein Rab‐18 (RAB18) (from UniProt Q9NP72 1-206)” was tested. Which binding [1] did it give?
Its binding is “binds”.

B1: Dihydrolipoamide Acetyltransferase (DLAT) (enzyme, UniProt P10515 87-647)
chain: SLPPHQKVPLPSLSPTMQAGTIARWEKKEGDKINEGDLIAEVETDKATVGFESLEECYMAKILVAEGTRDVPIGAIICITVGKPEDIEAFKNYTLDSSAAPTPQAAPAPTPAATASPPTPSAQAPGSSYPPHMQVLLPALSPTMTMGTVQRWEKKVGEKLSEGDLLAEIETDKATIGFEVQEEGYLAKILVPEGTRDVPLGTPLCIIVEKEADISAFADYRPTEVTDLKPQVPPPTPPPVAAVPPTPQPLAPTPSAPCPATPAGPKGRVFVSPLAKKLAVEKGIDLTQVKGTGPDGRITKKDIDSFVPSKVAPAPAAVVPPTGPGMAPVPTGVFTDIPISNIRRVIAQRLMQSKQTIPHYYLSIDVNMGEVLLVRKELNKILEGRSKISVNDFIIKASALACLKVPEANSSWMDTVIRQNHVVDVSVAVSTPAGLITPIVFNAHIKGVETIANDVVSLATKAREGKLQPHEFQGGTFTISNLGMFGIKNFSAIINPPQACILAIGASEDKLVPADNEKGFDVASMMSVTLSCDHRVVDGAVGAQWLAEFRKYLEKPITMLL
Which binding [2] does the source give for B1 here?
The binding was “binds”.

B2: dihydrolipoamide dehydrogenase (DLD), P09622 36-509 (enzyme)
chain: ADQPIDADVTVIGSGPGGYVAAIKAAQLGFKTVCIEKNETLGGTCLNVGCIPSKALLNNSHYYHMAHGKDFASRGIEMSEVRLNLDKMMEQKSTAVKALTGGIAHLFKQNKVVHVNGYGKITGKNQVTATKADGGTQVIDTKNILIATGSEVTPFPGITIDEDTIVSSTGALSLKKVPEKMVVIGAGVIGVELGSVWQRLGADVTAVEFLGHVGGVGIDMEISKNFQRILQKQGFKFKLNTKVTGATKKSDGKIDVSIEAASGGKAEVITCDVLLVCIGRRPFTKNLGLEELGIELDPRGRIPVNTRFQTKIPNIYAIGDVVAGPMLAHKAEDEGIICVEGMAGGAVHIDYNCVPSVIYTHPEVAWVGKSEEQLKEEGIEYKVGKFPFAANSRAKTNADTDGMVKILGQKSTDRVLGAHILGPGAGEMVNEAALALEYGASCEDIARVCHAHPTLSEAFREANLAASFGKSINF
B2 was tested. Which binding [3] did it give?
The binding was “binds”.

B3: DLAT (mouse liver) (enzyme, UniProt Q8BMF4 86-642)
chain: SLPPHQKVPLPSLSPTMQAGTIARWEKKEGEKISEGDLIAEVETDKATVGFESLEECYMAKILVPEGTRDVPVGSIICITVEKPQDIEAFKNYTLDLAAAAAPQAAPAAAPAPAAAPAAPSASAPGSSYPTHMQIVLPALSPTMTMGTVQRWEKKVGEKLSEGDLLAEIETDKATIGFEVQEEGYLAKILVPEGTRDVPLGAPLCIIVEKQEDIAAFADYRPTEVTSLKPQAAPPAPPPVAAVPPTPQPVAPTPSAAPAGPKGRVFVSPLAKKLAAEKGIDLTQVKGTGPEGRIIKKDIDSFVPSKAAPAAAAAMAPPGPRVAPAPAGVFTDIPISNIRRVIAQRLMQSKQTIPHYYLSVDVNMGEVLLVRKELNKMLEGKGKISVNDFIIKASALACLKVPEANSSWMDTVIRQNHVVDVSVAVSTPAGLITPIVFNAHIKGLETIASDVVSLASKAREGKLQPHEFQGGTFTISNLGMFGIKNFSAIINPPQACILAIGASEDKLIPADNEKGFDVASVMSVTLSCDHRVVDGAVGAQWLAEFKKYLEKPITMLL
How did the binding [4] turn out when B3 was run?
Its binding is “binds”.

Source: paper PMC12140386, “Diallyl Trisulfide From Garlic Regulates RAB18 Phase Separation to Inhibit Lipophagy and Induce Cuproptosis in Hepatic Stellate Cells for Antifibrotic Effects” (Advanced Science, 2025)
